Test results: publication PMC4326459
These are yes or no findings as the source states them, for the method shown. In cells and extracts the contact can be indirect. A result given as binding can be weak or reduced; the word gives no strength.

Amino acid sequences for entries named in this document (tags omitted). A change or cut given only in a name is not applied to a line headed by its entry.
UniProt P12004: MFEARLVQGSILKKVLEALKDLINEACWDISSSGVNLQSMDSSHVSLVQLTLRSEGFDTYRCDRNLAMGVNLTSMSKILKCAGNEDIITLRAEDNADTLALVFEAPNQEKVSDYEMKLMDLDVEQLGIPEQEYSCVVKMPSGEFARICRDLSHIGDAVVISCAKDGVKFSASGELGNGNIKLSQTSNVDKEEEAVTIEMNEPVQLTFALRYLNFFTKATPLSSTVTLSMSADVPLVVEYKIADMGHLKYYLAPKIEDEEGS
UniProt P55211: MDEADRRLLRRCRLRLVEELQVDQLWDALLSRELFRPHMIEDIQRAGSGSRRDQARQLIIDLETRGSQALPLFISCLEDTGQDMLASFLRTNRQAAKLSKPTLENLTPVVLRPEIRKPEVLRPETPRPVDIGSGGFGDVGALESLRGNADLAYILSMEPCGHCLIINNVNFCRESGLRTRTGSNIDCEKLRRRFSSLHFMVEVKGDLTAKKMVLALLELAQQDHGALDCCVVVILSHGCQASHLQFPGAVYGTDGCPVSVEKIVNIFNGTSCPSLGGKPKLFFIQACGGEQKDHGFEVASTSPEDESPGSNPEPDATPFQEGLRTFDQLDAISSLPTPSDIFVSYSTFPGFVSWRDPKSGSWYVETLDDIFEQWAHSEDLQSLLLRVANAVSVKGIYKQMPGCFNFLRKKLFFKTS

How the values were obtained:
Experiment in all cases: pull-down; WT or mutant His-PCNA on nickel-agarose beads, exposed to SNOC or control conditions, incubated in the dark with HeLa cytosolic fraction (about 50 ug His-PCNA, overnight, 4°C); caspase-9 detected by Western blot; only the target purified
[1] = biological target: recombinant His-PCNA C81A (human) (UniProt P12004)
[2] = biological target: recombinant His-PCNA C162A (human) (UniProt P12004)
[3] = biological target: recombinant wild-type His-PCNA (human) (UniProt P12004)

Measured: binding

caspase-9, endogenous in HeLa cytosol (from UniProt P55211) (enzyme)
binds: all assays above
